For part of these data: HELM strings list residues between dots; [ac] is acetyl, [am] amide, other brackets name non-standard units.
Experiments:
[1] = tested on: human red blood cells (hRBC's); assay: Hemolysis assay; assay type: cell-based; conditions: H50/the MIC of S. aureus
Method: Freshly drawn human red blood cells (hRBC's) with additive K2 EDTA (spray-dried) were washed with PBS buffer several times and centrifuged at 1000 g for 10 min until a clear supernatant was observed. The hRBC's were resuspended in 1×PBS to get a 5% v/v suspension. Two-fold serial dilutions of γ-AApeptides dissolved in 1×PBS from 250 μg/ml through 1.6 μg/ml were added to a sterile 96-well plate to make up a total volume of 50 μL in each well. Then 50 μL of 5% v/v hRBC solution was added to make up a total volume of 100 μL in each well. The 0% hemolysis point and 100% hemolysis point were determined in 1×PBS and 0.2% Triton-X-100, respectively (Patch et al., 2003). The plate was then incubated at 37° C. for 1 h and centrifuged at 3500 rpm for 10 min. The supernatant (30 μL) was diluted with 100 μL of 1×PBS and absorption was detected by measuring the optical density at 360 nm by Biotek Synergy HT microtiter plate reader. % hemolysis was determined by the following equation: % hemolysis=(Abssample−AbsPBS)/(AbsTriton−AbsPBS)×100 H50 is the concentration of γ-AApeptide amphiphiles at which 50% hemolysis was observed. […] Fluorescence Microscopy
The sequences shown in FIG. 12 were also evaluated via hemolytic assays. […] The 0% hemolysis point and 100% hemolysis point were determined in 1×PBS and 0.2% Triton-X-100, respectively (Patch et al., 2003). […]

[2] = general procedure: Fmoc solid-phase peptide synthesis; Knorr resin; Rink amide resin; DIC/DhbtOH; PyBop/HOBt/DIEA for cyclization; conditions: whole synthesis, based on loading of the resin

Molecule | selectivity [1] | isolated yield [2]
CCCCCCCCCCCCCCCC(=O)N[C@@H](CCCCN)CN(CC(N)=O)C(=O)CCCN [Sequence 2] | 16 | 
CCCCCCCC/C=C\CCCCCCCC(=O)N[C@@H](CCCCN)CN(CC(N)=O)C(=O)CCCN [Sequence 10] | 25 | 
PEPTIDE1{[gF-mp].[gF-mp].[gK-hc].[gK-hc].[gK-hc].[gK-hc].[gF-suc].[am]}$PEPTIDE1,PEPTIDE1,1:R1-7:R3$$$V2.0 |  | 6.0%
PEPTIDE1{[gK-hc].[gF-mp].[gK-hc].[gK-hc].[gF-mp].[gK-hc].[gF-suc].[am]}$PEPTIDE1,PEPTIDE1,1:R1-7:R3$$$V2.0 |  | 6.5%
PEPTIDE1{[gK-hc].[gK-hc].[gK-hc].[gK-hc].[gK-hc].[gF-suc].[am]}$PEPTIDE1,PEPTIDE1,1:R1-6:R3$$$V2.0 |  | 8.6%
PEPTIDE1{[gK-hc].[gK-hc].[gK-hc].[gK-hc].[gK-hc].[gK-hc].[gF-suc].[am]}$PEPTIDE1,PEPTIDE1,1:R1-7:R3$$$V2.0 |  | 6.2%

From patent US10308686B2 (priority 2012, dated 2019)
